Source: patent publication US20040210040A1 (PDL BIOPHARMA, published 2004)
Results are given in words; binding and its absence hold for the method and conditions named. Some entries that bind do so weakly or less than the wild type.

What was measured:
[1] = biological target: T1, full-length cell surface human AR on transfected CHO cells (human) (UniProt P15514); experiment: table column BINDING: Surface AR (sheet footnote: direct binding as detected by ELISA; text: flow cytometry on CHO cells with surface human AR)
T1 sequence: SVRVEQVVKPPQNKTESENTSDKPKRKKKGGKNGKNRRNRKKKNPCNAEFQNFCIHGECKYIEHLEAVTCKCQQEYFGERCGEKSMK

[2] = biological target: T2, recombinant soluble human amphiregulin (human, UniProt P15514 101-198, limits assumed); experiment: direct binding ELISA (table column BINDING: AR)
T2 sequence: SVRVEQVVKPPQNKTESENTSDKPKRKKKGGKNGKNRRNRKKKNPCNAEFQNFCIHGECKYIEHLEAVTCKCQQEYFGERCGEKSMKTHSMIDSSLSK

[3] = biological target: T2, recombinant soluble human amphiregulin; experiment: competition ELISA on plate-coated recombinant soluble human amphiregulin; competes with biotinylated PAR34
Protocol: The affinity of HuPAR34 to human amphiregulin was analyzed by competition ELISA. MaxiSorp ELISA plates (Nalge Nunc International) were coated overnight at 4° C. with 100 μl/well of 0.5 μg/ml recombinant soluble human amphiregulin in 0.2 M sodium carbonate-bicarbonate buffer, pH 9.4, washed with Wash Buffer (PBS containing 0.1% Tween 20), and blocked for 15 min at room temperature with 200 μl/well of SuperBlock Blocking Buffer in TBS (Pierce Chemical Company). After washing with Wash Buffer, a mixture of biotinylated PAR34 (0.125 μg/ml final concentration) and competitor antibody (PAR34 or HuPAR34 starting at 75 μg/ml final concentration and serially diluted 3-fold) in 100 μl/well of ELISA buffer was added in triplicate. As a control, 100 μl/well of 75 μg/ml of humanized anti-CD33 IgG1/κ monoclonal antibody HuM195 (Co, M. S. et al., J. Immunol., 148: 1149-1154 (1992)) in ELISA buffer was used. As a no-competitor control, 100 μl/well of ELISA Buffer was used. After incubating the plates for 1 hr and washing with Wash Buffer, bound antibodies were detected using 100 μl/well of 1 μg/ml HRP-conjugated streptavidin (Pierce Chemical Company) in ELISA buffer. After incubating for 0.5 hr at room temperature and washing with Wash Buffer, color development was performed by adding 100 μl/well of ABTS substrate (KPL, Inc.). […] Absorbance was read at 415 nm. […]

[4] = biological target: T1, full-length cell surface human AR on transfected CHO cells (human); experiment: flow cytometry on cells expressing AR (FIG. 2)
[5] = biological target: T1, full-length cell surface human AR on transfected CHO cells (human); experiment: flow cytometry on CHO transfectants expressing surface AR
[6] = biological target: T1, full-length cell surface human AR on transfected CHO cells (human); experiment: flow cytometry (FL2-H) on cells expressing surface amphiregulin
[7] = biological target: T2, recombinant soluble human amphiregulin; experiment: competition ELISA on coated recombinant soluble human amphiregulin

Measured: binding

B1: PAR34 (murine anti-amphiregulin monoclonal antibody) (antibody, mouse IgG2b, V domains shown)
VH: EIQLQQSGPELVKPGASVKVSCKASGYAFTNYNMYWVKQSHGKSLEWIGYIDPYYGDPGYSQKFKGKATLTVDKSSSTAYMHLNSLTSEDSAVYYCARRGNFPYYFDYWGQGTTLTVSS
VL: DIKMTQSPSSMYASLGERVTITCKASQDINSYLSWFQQKPGKSPKTLIYRANRLVDGVPSRFSGSGSGQDYSLTISSLEYEDMGIYYCLQYDEFPYTFGGGTKLEIK
not listed: [7]
binds: all other assays above

B2: HuPAR34 (humanized PAR34, IgG1/kappa) (antibody, V domains shown)
VH: EVQLVQSGAEVKKPGASVKISCKVSGYAFTNYNMYWVRQAPGKGLEWIGYIDPYYGDPGYSQKFKGKATLTVDKSTSTAYMELSSLRSEDTAVYYCARRGNFPYYFDYWGQGTLVTVSS
VL: DIQMTQSPSSLSASVGDRVTITCKASQDINSYLSWFQQKPGKAPKTLIYRANRLVDGVPSRFSGSGSGQDYTLTISSLQPEDFATYYCLQYDEFPYTFGGGTKVEIK
binds: [3] | [7]

B3: PAR80 (murine anti-amphiregulin monoclonal antibody) (antibody, mouse IgG2a, V domains shown)
VH: EVQLQQSGAELVRSGASVKLSCTASGFNIKDYYIHWVKQRPEQGLEWIGCIDPENGDTEYAPNFQGRATMTADTSSNTAYLQLSSLTSEDTAVYYCYGGTITFAYWGQGTLVTVSA
VL: QAVVTQESALTTSPGETVTLTCRSSTGAVTTSNSANWVQEKPDHLFTGLIGGTINRVPGVPARFSGSLIGDKAALTITGAQTEDEAIYFCALWYSNHWVFGGGTKLTVLG
not listed: [3] | [7]
binds: all other assays above
